Results from paper PMC10790229 (Journal of medicinal chemistry, 2023).

Assay: in vitro
Details: human, microsomes, % Remaining (NCF = 60 min)

remaining at 1 h, 1 µM: 104%
SMILES: CCCNCC(O)COc1ccccc1C(=O)CCc1ccccc1 (stereo not shown) [Propafenone, propafenone, reference compound]
